According to patent US20040033229A1:
No constants are given. Whether binding was seen depends on the method and setting. Some entries that bind do so weakly or less than the wild type.

By UniProt entry, the sequences of proteins in these tests, tags left out. Where a name states a change or a piece, a line headed by the entry shows the natural chain unless it says otherwise.
UniProt Q04609: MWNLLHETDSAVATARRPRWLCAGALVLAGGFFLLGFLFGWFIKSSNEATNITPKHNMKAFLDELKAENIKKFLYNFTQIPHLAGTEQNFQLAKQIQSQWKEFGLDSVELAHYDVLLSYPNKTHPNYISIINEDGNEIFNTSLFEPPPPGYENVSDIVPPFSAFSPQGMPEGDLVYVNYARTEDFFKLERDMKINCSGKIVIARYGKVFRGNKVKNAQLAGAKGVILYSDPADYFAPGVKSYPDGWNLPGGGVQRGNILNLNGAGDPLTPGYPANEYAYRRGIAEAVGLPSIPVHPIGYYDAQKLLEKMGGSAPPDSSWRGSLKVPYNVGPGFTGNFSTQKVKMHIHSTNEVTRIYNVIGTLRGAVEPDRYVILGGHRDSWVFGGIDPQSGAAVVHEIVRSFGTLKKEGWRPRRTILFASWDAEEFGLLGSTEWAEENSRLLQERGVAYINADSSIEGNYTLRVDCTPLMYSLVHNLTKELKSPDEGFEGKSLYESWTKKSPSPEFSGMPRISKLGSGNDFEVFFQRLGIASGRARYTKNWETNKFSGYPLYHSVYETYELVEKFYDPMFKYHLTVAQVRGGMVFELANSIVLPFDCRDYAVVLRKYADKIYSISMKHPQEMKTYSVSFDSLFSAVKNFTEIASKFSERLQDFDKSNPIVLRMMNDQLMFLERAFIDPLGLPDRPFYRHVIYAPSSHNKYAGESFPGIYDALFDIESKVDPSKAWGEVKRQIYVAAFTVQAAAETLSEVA

Biological target: prostate specific membrane antigen (PSMA), full-length, on the cell surface (human) (UniProt Q04609)
Assay: flow cytometry, 3T3-PSMA against 3T3 cells

B1: AB-PG1-XG1-051 (antibody, IgG1, V domains shown)
VH: QVQLVESGGGVVQPGRSLRLSCAASGFTFSSYGMHWVRQAPGKGLDWVAIIWHDGSNKYYADSVKGRFTISRDNSKKTLYLQMNSLRAEDTAVYYCARAWAYDYGDYEYYFGMDVWGQGTTVTVSS
VL: DIQMTQSPSSLSASVGDRVTITCRASQGISHYLAWFQQKPGKAPKSLIYAASSLQSGVPSKFSGSGSGTDFTLTISSLQPEDFATYYCQQYNSFPLTFGGGTKVEIK
binding: binds
